The other results are listed elsewhere or left out. The data scatter; read single values as rough.
Molecular target: T1, DGKH C647 (UniProt Q86XP1)
T1 sequence (whole entry): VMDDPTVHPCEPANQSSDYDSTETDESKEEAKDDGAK
Assay: log2 mean competition ratio of IA-DTB cysteine labelling (DMSO/compound) (log2 ratio); higher = stronger cysteine engagement by compound
Details: 50 µM; treatment time: 4 h; cell line lysate: HEK293T
Procedure: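 IA-DTB competitive cysteine chemoproteomics in HEK293T RIPA lysate. Lysates were treated with compound 29 or 30 at 50 or 200 µM for 4 h, then IA-DTB (500 µM, 1 h), trypsin-digested, NeutrAvidin-enriched and analysed by diaPASEF. Competition ratio = intensity DMSO / intensity compound (n=4 treated, n=64 DMSO); binding: mean log2 CR ≥ 1 and p ≤ 0.05 plus QC filters. Target is the cysteine site.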

Row | Structure (SMILES) | log2 mean competition ratio
1 | O=C(CCl)N[C@@H]1CCCc2ccccc21 | -0.911
2 | O=C(CCl)N[C@H]1CCCc2ccccc21 | 0.142

Same assay, conditions: 200 µM; treatment time: 4 h; cell line lysate: HEK293T

Row | Structure (SMILES) | log2 mean competition ratio
3 | O=C(CCl)N[C@@H]1CCCc2ccccc21 | -0.453
4 | O=C(CCl)N[C@H]1CCCc2ccccc21 | -0.756
